In US9359196B2, “Antiproliferative compositions comprising curcumin analogs and methods of producing and using same” (The Board of Regents of the University of Oklahoma, priority 2009, dated 2016):

Test system: H441 cells
Experiment: Illumina microarray gene expression analysis of H441 cells
Type: cell-based, human
Conditions: H441, 1 μM, 12 hours
Description: RNA Extraction and microarray sample processing: H441 cells were seeded in […] tissue culture plates at a density of 1×10^6 cells per well. The cells were allowed to attach and grow overnight and then treated with CLEFMA (n=5) at 1 μM in culture medium supplemented with 5% FBS. The DMSO concentration was maintained at 0.1% per well. Control wells (n=5) received equivalent volumes of DMSO without any test compound. The cells were kept in the treatment medium for 12 hours, after which the cells were washed twice with ice-cold Dulbecco's phosphate buffered saline (PBS). The total RNA was extracted using the RNAeasy kit (Qiagen, CA) as per the manufacturer's instructions. […]
The expression of >48,000 genes were compared using Illumina Human WG-6 v3 arrays. […] The cRNA was then hybridized overnight to Illumina BeadChips, and the microarray chips were washed with high stringency and labeled with streptavidin-Cy3 (Amersham Biosciences; Piscataway, N.J.) prior to scanning on an Illumina BeadArray Reader.
Microarray Data Analysis: The Illumina WG-6_v3 array data for each experimental condition were exported from the BeadStudio Software for further analysis. […] The genes that expressed below the noise level under all experimental conditions (approximately 1,600) were excluded from consideration, as their expression could not be reliably assessed. […]

Compound: O=C(O)C=CC(=O)N1CC(=Cc2ccccc2Cl)C(=O)C(=Cc2ccccc2Cl)C1 [Compound 29, 4-[3,5-Bis-(2-chlorobenzylidene)-4-oxo-piperidin-1-yl]-4-oxo-2-butenoic acid]
- number of genes downregulated: 59
- number of genes stably upregulated (>1.5-fold): 95
